Test results taken from the supplement of paper PMC12889115.
The list shows a part of the results. These are raw signals, not scaled to a control.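 In the initial screen, polymyxin B was used at a concentration that permeabilizes Salmonella's outer membrane but not its inner membrane. Maximum growth was set by DMSO wells with or without polymyxin B. Since plates varied, data were ranked per plate, and compounds giving the lowest OD600 advanced as hits.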

Tested on: Salmonella enterica serovar Typhimurium SL1344
Experiment: bacterial growth OD600 after 18 h with compound and polymyxin B; higher = more bacterial growth (less inhibition)
Conditions: 50 µM, Mueller-Hinton broth

Row | SMILES | bacterial growth OD600 (polymyxin B 0.75 µg/mL) | bacterial growth OD600 (polymyxin B 1 µg/mL)
1 | CC(=O)NCC(=O)N1CCCC(CCc2c(F)cccc2F)C1 (stereo unspecified) | 0.798 | –
2 | CN(CC1(O)CCCN(CC2CCC2)C1=O)C1CCCCC1 (stereo unspecified) | – | 0.955
3 | CCn1c(-c2cccnc2)nc2cc(NC(=O)COC)cc(C(=O)NCc3ccccc3OC)c21 | 0.862 | –
4 | COc1ccc(NC(=O)CCC2CCCN(Cc3cnc(SC)nc3)C2)c(C)c1 (stereo unspecified) | – | 0.863
5 | CC(=O)N1CCCC1C(=O)Nc1ccc(-c2nc3ccccc3o2)cc1 (stereo unspecified) | – | 0.998
6 | O=C(NC1CCc2ccccc21)c1coc(COc2ccc3c(c2)OCO3)n1 (stereo unspecified) | – | 0.953
7 | CCn1nc(C)cc1C(=O)N1CCCC(Nc2ccc(F)c(F)c2)C1 (stereo unspecified) | – | 0.943
8 | O=C(c1cc2ccccc2o1)N1CCC2(CCCN(Cc3ccccc3F)C2)C1 (stereo unspecified) | – | 0.027
9 | COc1ccccc1CCN1CCCC(CN(C)Cc2cnc(SC)nc2)C1 (stereo unspecified) | 0.77 | –
10 | C=CCCC(=O)N1CCCCC1C(=O)Nc1cccc(-c2nnc(C)s2)c1 (stereo unspecified) | 0.744 | –
11 | CCN1CCN(C(=O)c2ccc(N3CCC(NCc4cccc(-n5cccn5)c4)CC3)cc2)CC1 | 0.856 | –
12 | COC(=O)CNC(=O)c1coc(COc2ccc(F)cc2)n1 | – | 1.12
13 | O=C1CCC(C(=O)N2CCN(c3ccccc3)C(=O)C2)CN1Cc1ccc(Cl)cc1 (stereo unspecified) | – | 0.953
14 | COC(=O)CN(C)C(=O)Cc1c2c(n(CC(C)C)c1C)CC(C)(C)CC2=O | – | 0.852
15 | CSc1ccc(CN2CCN(Cc3ccccc3F)C(CCO)C2)cc1 (stereo unspecified) | – | 1.05
16 | Cc1ncsc1CCC(=O)N1CCCC(C(=O)c2ccc(Oc3ccccc3)cc2)C1 (stereo unspecified) | – | 0.01
17 | O=C(Nc1ccc(Oc2ccccc2F)cc1)C1CCCCN1C(=O)c1ccccn1 (stereo unspecified) | – | 0.902
18 | CN(Cc1nc(Cc2ccccc2F)no1)Cc1cccc2ncccc12 | – | 1.01
19 | COc1cccc(-c2ccc(NC(=O)C3CCCN3C(=O)c3ccco3)cc2)c1 (stereo unspecified) | – | 0.856
20 | COc1cccc(C(C)N(C)Cc2cn(C)nc2-c2cccc(Cl)c2)c1 (stereo unspecified) | – | 0.89
21 | COCCn1cnc2cc(C(=O)N(C)CCC3CCCCO3)cc(NC(=O)c3cccnc3)c21 (stereo unspecified) | 0.783 | –

Of the compounds above, these have a furan ring, fused or not.
Row | SMILES | bacterial growth OD600 (polymyxin B 0.75 µg/mL) | bacterial growth OD600 (polymyxin B 1 µg/mL)
8 | O=C(c1cc2ccccc2o1)N1CCC2(CCCN(Cc3ccccc3F)C2)C1 (stereo unspecified) | – | 0.027
19 | COc1cccc(-c2ccc(NC(=O)C3CCCN3C(=O)c3ccco3)cc2)c1 (stereo unspecified) | – | 0.856
